The record followed here is publication PMC3390413.

The target of assay [1] is FLAG-TRAF3 259–568 (human). The assay can be described thus: co-IP; tagged proteins co-expressed in 293T cells; immunoprecipitation of whole cell extracts and immunoblot. (In general: Immunoblotting shows a protein as a band on a membrane.)
The target of assay [2] is FLAG-TRAF3 114–568 (human). The description is as above.
The next assay deals with FLAG-TRAF3 1–117 (human). The assay is described as above.
The target of the next assay is FLAG-TRAF3 1–381 (human). Described as above.
Assay [3] has as its target FLAG-TRAF3 Y440/Q442A (human). The assay is described as above.
For assay [4], the target named is FLAG-TRAF3 389–568 (human). The description is as above.
Another assay has as its target FLAG-TRAF3 (human). The assay is described as above.
For assay [5], the target named is endogenous TRAF3 (human (endogenous in HeLa and HEK293)). The assay can be described thus: co-IP; endogenous proteins; HeLa whole-cell lysates; IP with anti-TRAF3 (H-20), immunoblot; cells untreated or treated with SeV, poly I:C or poly dA:dT (for MAVS: cells with nonsilencing RNA duplexes, SeV infection).

No constants are given. Whether binding was seen depends on the method and setting. Binding seen in cells or lysates may run through a third protein. For some assays here: A result given as binding can be weak or reduced; the word gives no strength. For some assays here: Where a sequence is shown, tags or fusion partners need not be part of it.

B1: Myc-p115 (protein, UniProt O60763 1-962)
chain: MNFLRGVMGGQSAGPQHTEAETIQKLCDRVASSTLLDDRRNAVRALKSLSKKYRLEVGIQAMEHLIHVLQTDRSDSEIIGYALDTLYNIISNEEEEEVEENSTRQSEDLGSQFTEIFIKQQENVTLLLSLLEEFDFHVRWPGVKLLTSLLKQLGPQVQQIILVSPMGVSRLMDLLADSREVIRNDGVLLLQALTRSNGAIQKIVAFENAFERLLDIISEEGNSDGGIVVEDCLILLQNLLKNNNSNQNFFKEGSYIQRMKPWFEVGDENSGWSAQKVTNLHLMLQLVRVLVSPTNPPGATSSCQKAMFQCGLLQQLCTILMATGVPADILTETINTVSEVIRGCQVNQDYFASVNAPSNPPRPAIVVLLMSMVNERQPFVLRCAVLYCFQCFLYKNQKGQGEIVSTLLPSTIDATGNSVSAGQLLCGGLFSTDSLSNWCAAVALAHALQENATQKEQLLRVQLATSIGNPPVSLLQQCTNILSQGSKIQTRVGLLMLLCTWLSNCPIAVTHFLHNSANVPFLTGQIAENLGEEEQLVQGLCALLLGISIYFNDNSLESYMKEKLKQLIEKRIGKENFIEKLGFISKHELYSRASQKPQPNFPSPEYMIFDHEFTKLVKELEGVITKAIYKSSEEDKKEEEVKKTLEQHDNIVTHYKNMIREQDLQLEELRQQVSTLKCQNEQLQTAVTQQVSQIQQHKDQYNLLKIQLGKDNQHQGSYSEGAQMNGIQPEEIGRLREEIEELKRNQELLQSQLTEKDSMIENMKSSQTSGTNEQSSAIVSARDSEQVAELKQELATLKSQLNSQSVEITKLQTEKQELLQKTEAFAKSVEVQGETETIIATKTTDVEGRLSALLQETKELKNEIKALSEERTAIKEQLDSSNSTIAILQTEKDKLELEITDSKKEQDDLLVLLADQDQKILSLKNKLKDLGHPVEEEDELESGDQEDEDDESEDPGKDLDHI
As to B1, the binding result is “no binding” in assay [1]; “no binding” in assay [2]; “no binding” with FLAG-TRAF3 1–117 (human); “no binding” in the assay with FLAG-TRAF3 1–381 (human); “binds” in assay [3]; “no binding” in assay [4]. Besides, the binding result with FLAG-TRAF3 (human) is recorded as “binds”.

B2: endogenous p115 (protein, UniProt O60763 1-962)
chain: B1 chain
Consider B2, for which the binding result in assay [5] is “binds weakly”.
